Assay results published in the supplement of paper PMC6418307.
Single values of this set are uncertain.

Test system: primary mouse cortical neurons
Assay: cell health score (luciferase spike-in reads / total reads per well) (fraction); higher = fewer cellular reads, worse cell health / toxicity
Settings: treatment time 24 h
[1] = 0.01 µM, sex of neuron culture: Female
[2] = 0.01 µM, sex of neuron culture: Male
[3] = 0.1 µM, sex of neuron culture: Female
[4] = 0.1 µM, sex of neuron culture: Male
[5] = 1 µM, sex of neuron culture: Female
[6] = 1 µM, sex of neuron culture: Male
[7] = 10 µM, sex of neuron culture: Female
[8] = 10 µM, sex of neuron culture: Male

SMILES	cell health score [1]	cell health score [2]	cell health score [3]	cell health score [4]	cell health score [5]	cell health score [6]	cell health score [7]	cell health score [8]
CCCCOC(=O)c1ccccc1C(=O)O [Monobutyl phthalate]	0.000474	0.000786	0.000546	0.000863	0.000695	0.000432	0.000756	0.00068
CNC(=O)/C=C(\C)OP(=O)(OC)OC [Monocrotophos]	0.000538	0.000795	0.000895	0.000929	0.00139	0.000593	0.00132	0.000579
COC(=O)c1ccccc1C(=O)O [Monomethyl phthalate]	0.000456	0.000698	0.000689	0.000727	0.000704	0.000675	0.000836	0.000452
COc1c(N2C[C@@H]3CCCN[C@@H]3C2)c(F)cc2c(=O)c(C(=O)O)cn(C3CC3)c12 [Moxifloxacin]	0.000443	0.000859	0.000635	0.000707	0.000968	0.000806	0.00114	0.000591
CCCCC(C#N)(Cn1cncn1)c1ccc(Cl)cc1 (stereo unspecified) [Myclobutanil]	0.000579	0.000651	0.000928	0.000636	0.000602	0.000508	0.000528	0.00174
CO/C(=C/C(N)=O)[C@H](C)[C@H](/C=C/c1csc(-c2csc([C@@H](C)/C=C/C=C/C(C)C)n2)n1)OC [Myxothiazol]	0.00229	0.000936	0.00197	0.00161	0.00131	0.000947	0.00258	0.00305
OC[C@H]1O[C@@H](n2cnc3c(NC4CCCC4)ncnc32)[C@H](O)[C@@H]1O [N6-Cyclopentyl adenosine]	0.000527	0.000739	0.00139	0.000773	0.000759	0.000973	0.00107	0.00109
CC(=O)N=C1C=CC(=O)C=C1 [NAPQI]	0.000529	0.000734	0.000819	0.000773	0.0012	0.00074	0.000995	0.000816
COP(=O)(OC)OC(Br)C(Cl)(Cl)Br (stereo unspecified) [Naled]	0.000448	0.000712	0.000827	0.00088	0.00114	0.000686	0.00119	0.000587
CCN(CC)C(=O)C(C)Oc1cccc2ccccc12 (stereo unspecified) [Napropamide]	0.000489	0.00356	0.00095	0.000636	0.00104	0.000626	0.000672	0.000576
O=C(Nc1ccc([N+](=O)[O-])cc1Cl)c1cc(Cl)ccc1O [Niclosamide]	0.000548	0.00118	0.000764	0.0014	0.000657	0.00103	0.00302	0.0086
Clc1cccc(C(Cl)(Cl)Cl)n1 [Nitrapyrin]	0.000618	0.0012	0.00101	0.00112	0.000733	0.000567	0.00284	0.000563
CNc1cnn(-c2cccc(C(F)(F)F)c2)c(=O)c1Cl [Norflurazon]	0.000334	0.000839	0.001	0.000771	0.00101	0.000643	0.00146	0.000799
O=C(NC(=O)c1c(F)cccc1F)Nc1ccc(OC(F)(F)C(F)OC(F)(F)F)c(Cl)c1 (stereo unspecified) [Novaluron]	0.000745	0.000924	0.000911	0.000959	0.000737	0.00136	0.00109	0.000785
CCCN(CCC)c1c([N+](=O)[O-])cc(S(N)(=O)=O)cc1[N+](=O)[O-] [Oryzalin]	0.000524	0.000571	0.000841	0.000751	0.000731	0.000464	0.000933	0.000546
CC(C)Oc1cc(-n2nc(C(C)(C)C)oc2=O)c(Cl)cc1Cl [Oxadiazon]	0.000702	0.000849	0.000789	0.00108	0.000887	0.000756	0.0013	0.000492
CNC(=O)O/N=C(\SC)C(=O)N(C)C [Oxamyl]	0.000373	0.000769	0.000681	0.000867	0.00085	0.000749	0.00116	0.000589
CCOc1cc(Oc2ccc(C(F)(F)F)cc2Cl)ccc1[N+](=O)[O-] [Oxyfluorfen]	0.000551	0.00145	0.00125	0.00107	0.000962	0.000528	0.0013	0.000604
CN(C)[C@@H]1C(O)=C(C(N)=O)C(=O)[C@@]2(O)C(O)=C3C(=O)c4c(O)cccc4[C@@](C)(O)[C@H]3[C@H](O)[C@@H]12 [Oxytetracycline dihydrate]	0.000515	0.00073	0.00111	0.00111	0.000695	0.000484	0.000843	0.000507
COc1cccc(NCC(F)Cn2c3ccc(Br)cc3c3cc(Br)ccc32)c1 (stereo unspecified) [P7C3-A20]	0.000497	0.000837	0.000787	0.00111	0.000659	0.000409	0.000931	0.00256
C[n+]1ccc(-c2cc[n+](C)cc2)cc1 [Paraquat]	0.000609	0.0007	0.000639	0.000854	0.000448	0.000635	0.00103	0.000707
CCOP(=S)(OCC)Oc1ccc([N+](=O)[O-])cc1 [Parathion]	0.000878	0.000619	0.000815	0.000755	0.000624	0.000588	0.00155	0.000625
CCC(CC)Nc1c([N+](=O)[O-])cc(C)c(C)c1[N+](=O)[O-] [Pendimethalin]	0.000656	0.000816	0.000919	0.00104	0.000564	0.000827	0.00134	0.000668
COc1cnc(OC)n2nc(NS(=O)(=O)c3c(OCC(F)F)cccc3C(F)(F)F)nc12 [Penoxsulam]	0.000472	0.000689	0.000716	0.001	0.000644	0.000764	0.000764	0.000708
O=[N+]([O-])c1c(Cl)c(Cl)c(Cl)c(Cl)c1Cl [Pentachloronitrobenzene]	0.000514	0.000787	0.000945	0.000828	0.000953	0.000882	0.000911	0.000939
CC1(C)C(C=C(Cl)Cl)C1C(=O)OCc1cccc(Oc2ccccc2)c1 (stereo unspecified) [Permethrin]	0.000572	0.000836	0.000811	0.00095	0.000791	0.000912	0.000966	0.000461
CCOP(=S)(OCC)SCn1c(=O)oc2cc(Cl)ccc21 [Phosalone]	0.000664	0.000791	0.000682	0.000814	0.000976	0.000715	0.00109	0.00062

Some of the entries so far, with bars between the fields:
SMILES | cell health score [1] | cell health score [2] | cell health score [3] | cell health score [4] | cell health score [5] | cell health score [6] | cell health score [7] | cell health score [8]
CCCCOC(=O)c1ccccc1C(=O)O [Monobutyl phthalate] | 0.000474 | 0.000786 | 0.000546 | 0.000863 | 0.000695 | 0.000432 | 0.000756 | 0.00068
COC(=O)c1ccccc1C(=O)O [Monomethyl phthalate] | 0.000456 | 0.000698 | 0.000689 | 0.000727 | 0.000704 | 0.000675 | 0.000836 | 0.000452
OC[C@H]1O[C@@H](n2cnc3c(NC4CCCC4)ncnc32)[C@H](O)[C@@H]1O [N6-Cyclopentyl adenosine] | 0.000527 | 0.000739 | 0.00139 | 0.000773 | 0.000759 | 0.000973 | 0.00107 | 0.00109
CNc1cnn(-c2cccc(C(F)(F)F)c2)c(=O)c1Cl [Norflurazon] | 0.000334 | 0.000839 | 0.001 | 0.000771 | 0.00101 | 0.000643 | 0.00146 | 0.000799
CCOP(=S)(OCC)Oc1ccc([N+](=O)[O-])cc1 [Parathion] | 0.000878 | 0.000619 | 0.000815 | 0.000755 | 0.000624 | 0.000588 | 0.00155 | 0.000625
O=[N+]([O-])c1c(Cl)c(Cl)c(Cl)c(Cl)c1Cl [Pentachloronitrobenzene] | 0.000514 | 0.000787 | 0.000945 | 0.000828 | 0.000953 | 0.000882 | 0.000911 | 0.000939
